No constants are given. Whether binding was seen depends on the method and setting. Binding seen in cells or lysates may run through a third protein. Some results given as binding are weak or reduced against the parent protein; the word gives no strength.

Amino acid sequences for entries named in this document (tags omitted). Residues count along the entry.
UniProt Q8C6L5: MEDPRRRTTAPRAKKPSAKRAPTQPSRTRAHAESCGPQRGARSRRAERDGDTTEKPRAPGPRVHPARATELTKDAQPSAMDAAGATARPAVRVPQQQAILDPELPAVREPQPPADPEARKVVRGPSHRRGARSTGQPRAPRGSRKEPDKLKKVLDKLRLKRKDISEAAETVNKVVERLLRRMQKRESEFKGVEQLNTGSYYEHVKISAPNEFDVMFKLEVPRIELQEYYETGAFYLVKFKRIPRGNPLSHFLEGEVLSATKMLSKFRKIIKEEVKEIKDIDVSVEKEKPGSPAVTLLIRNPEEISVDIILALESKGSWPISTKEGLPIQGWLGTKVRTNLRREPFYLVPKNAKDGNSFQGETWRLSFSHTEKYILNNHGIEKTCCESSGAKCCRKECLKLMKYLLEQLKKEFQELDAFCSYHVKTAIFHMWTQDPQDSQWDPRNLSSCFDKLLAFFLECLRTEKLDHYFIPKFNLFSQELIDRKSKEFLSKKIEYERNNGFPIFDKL
UniProt Q8N884, residues 161-522: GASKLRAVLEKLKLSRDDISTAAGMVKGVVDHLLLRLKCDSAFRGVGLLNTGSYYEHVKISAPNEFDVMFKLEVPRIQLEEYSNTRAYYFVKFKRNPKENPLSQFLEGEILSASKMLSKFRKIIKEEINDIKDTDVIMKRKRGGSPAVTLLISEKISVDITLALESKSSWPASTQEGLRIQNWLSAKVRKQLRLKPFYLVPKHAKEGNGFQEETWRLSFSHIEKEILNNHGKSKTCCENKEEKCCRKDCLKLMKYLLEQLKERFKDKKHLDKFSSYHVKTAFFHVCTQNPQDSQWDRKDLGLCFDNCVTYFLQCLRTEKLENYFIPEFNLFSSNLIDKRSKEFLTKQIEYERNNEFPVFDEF

Assay [1] has as its target cGAS, endogenous in murine lung fibroblasts (mouse (endogenous in MLFs)) (UniProt Q8C6L5). Description: co-IP; endogenous proteins; cytoplasmic lysates of un-infected MLFs (1 x 10^7); immunoblot with the indicated antibodies.
Assay [2] deals with C-terminal catalytic domain (aa 161-522) of cGAS (not stated (human or mouse cDNA cloned)) (UniProt Q8N884). In words: co-IP; HEK293T cells transfected with the indicated plasmids for 16 h; domain mapping with cGAS truncations; immunoblot with the indicated antibodies.

B1: PPP6C, endogenous in murine lung fibroblasts (enzyme, UniProt Q9CQR6 1-305)
chain: MAPLDLDKYVEIARQCKYLPENDLKRLCDYVCDLLLEESNVQPVSTPVTVCGDIHGQFYDLCELFRTGGQVPDTNYIFMGDFVDRGYYSLETFTYLLALKAKWPDRITLLRGNHESRQITQVYGFYDECQTKYGNANAWRYCTKVFDMLTVAALIDEQILCVHGGLSPDIKTLDQIRTIERNQEIPHKGAFCDLVWSDPEDVDTWAISPRGAGWLFGAKVTNEFVHINNLKLICRAHQLVHEGYKFMFDEKLVTVWSAPNYCYRCGNIASIMVFKDVNTREPKLFRAVPDSERVIPPRTTTPYFL
With B1, the binding entry in assay [1] is given as “binds”.

B2: PPP6C, expressed in HEK293T cells (enzyme, UniProt O00743 1-305)
chain: MAPLDLDKYVEIARLCKYLPENDLKRLCDYVCDLLLEESNVQPVSTPVTVCGDIHGQFYDLCELFRTGGQVPDTNYIFMGDFVDRGYYSLETFTYLLALKAKWPDRITLLRGNHESRQITQVYGFYDECQTKYGNANAWRYCTKVFDMLTVAALIDEQILCVHGGLSPDIKTLDQIRTIERNQEIPHKGAFCDLVWSDPEDVDTWAISPRGAGWLFGAKVTNEFVHINNLKLICRAHQLVHEGYKFMFDEKLVTVWSAPNYCYRCGNIASIMVFKDVNTREPKLFRAVPDSERVIPPRTTTPYFL
Take B2: in assay [2], the binding entry is reported as “binds”.

The values above are taken from paper PMC7381519.
